Assay results as given in US7871788B2, “Method of judging grade of malignancy of carcinoma cell using ATBF-1” (priority 2004, dated 2011).
For at least one compound, name, drawing or mass did not settle the structure.

System: P19 cells
Experiment: Movement of ATBF1 from cytoplasm to nucleus in P19 cells, PI3K family antagonists added
Type: cell-based, mouse
Details: P19 cells on fibronectin-coated dish, after retinoic acid
Protocol: The present inventors harvested cells in an undifferentiated proliferation state, to which stimulation had not been particularly applied, when at the starting time of culturing P19 carcinoma cells, and carried out an immunohistochemical staining method (ATBF1 staining using D1-120) by the following procedures. The cells were cultured in a chamber slide and fixed in 4% paraformaldehyde that had been adjusted with PBS, followed by washing. A primary antibody solution obtained by dissolving an anti-ATBF1 antibody in 0.05M Tris buffer solution (pH 7.6, containing 1% solution of bovine serum albumin and sodium azide) so that the concentration of the solution became 5 μg/ml was dropped on a slice to cause reaction at 37° C. for about 30 minutes (primary antibody reaction). […] After sufficiently washing, inclusion was carried, which was observed by using a fluorescence microscope (AX70; Olympus) or a confocal laser scanning microscope (LSM5; ZWISS). […]
From the fact about various factors relating to the cell cycle, which was investigated in the past, the movement of proteins between the nucleus and the cytoplasm is known to relate to phosphorylation of amino acid. In particular, it was determined that, for the movement to the nucleus, phosphorylation and dephosphorylation of nuclear localization signals were important. […]

SMILES: COC[C@H]1OC(=O)c2coc3c2[C@@]1(C)C1=C(C3=O)[C@@H]2CCC(=O)[C@@]2(C)C[C@H]1OC(C)=O [Wortmannin]
- ATBF1 production: not affected
